# In the supplement of paper PMC7666118:
# The chains behind the UniProt entries cited, without tags or fusion partners. Where a name states a change or a piece, a line headed by the entry shows the natural chain unless it says otherwise.
# UniProt Q9UN36: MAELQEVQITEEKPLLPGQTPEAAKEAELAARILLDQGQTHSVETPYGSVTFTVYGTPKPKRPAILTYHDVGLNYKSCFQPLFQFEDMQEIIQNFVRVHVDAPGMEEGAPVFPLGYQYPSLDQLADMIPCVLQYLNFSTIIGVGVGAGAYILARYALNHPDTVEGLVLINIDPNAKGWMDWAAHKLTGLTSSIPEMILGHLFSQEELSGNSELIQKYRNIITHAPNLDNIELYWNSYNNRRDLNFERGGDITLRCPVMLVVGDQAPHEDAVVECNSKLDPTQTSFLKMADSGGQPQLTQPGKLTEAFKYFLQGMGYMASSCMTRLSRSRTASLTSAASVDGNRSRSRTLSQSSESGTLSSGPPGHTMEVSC
# UniProt Q8WX92, whole entry: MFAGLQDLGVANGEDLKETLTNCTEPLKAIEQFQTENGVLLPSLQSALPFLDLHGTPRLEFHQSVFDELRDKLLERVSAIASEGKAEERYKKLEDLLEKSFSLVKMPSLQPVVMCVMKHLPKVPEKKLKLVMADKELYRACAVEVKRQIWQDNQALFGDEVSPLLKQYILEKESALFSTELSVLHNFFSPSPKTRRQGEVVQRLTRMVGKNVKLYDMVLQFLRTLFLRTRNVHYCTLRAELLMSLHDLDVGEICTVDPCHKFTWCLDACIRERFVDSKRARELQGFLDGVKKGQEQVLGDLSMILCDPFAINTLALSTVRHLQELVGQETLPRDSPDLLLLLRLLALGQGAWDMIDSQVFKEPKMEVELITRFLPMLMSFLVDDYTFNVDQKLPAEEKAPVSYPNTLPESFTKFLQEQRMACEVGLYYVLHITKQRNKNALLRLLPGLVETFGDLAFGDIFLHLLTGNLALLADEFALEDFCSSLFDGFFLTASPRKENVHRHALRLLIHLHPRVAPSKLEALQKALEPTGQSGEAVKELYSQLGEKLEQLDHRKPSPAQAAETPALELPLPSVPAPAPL
# UniProt Q13952: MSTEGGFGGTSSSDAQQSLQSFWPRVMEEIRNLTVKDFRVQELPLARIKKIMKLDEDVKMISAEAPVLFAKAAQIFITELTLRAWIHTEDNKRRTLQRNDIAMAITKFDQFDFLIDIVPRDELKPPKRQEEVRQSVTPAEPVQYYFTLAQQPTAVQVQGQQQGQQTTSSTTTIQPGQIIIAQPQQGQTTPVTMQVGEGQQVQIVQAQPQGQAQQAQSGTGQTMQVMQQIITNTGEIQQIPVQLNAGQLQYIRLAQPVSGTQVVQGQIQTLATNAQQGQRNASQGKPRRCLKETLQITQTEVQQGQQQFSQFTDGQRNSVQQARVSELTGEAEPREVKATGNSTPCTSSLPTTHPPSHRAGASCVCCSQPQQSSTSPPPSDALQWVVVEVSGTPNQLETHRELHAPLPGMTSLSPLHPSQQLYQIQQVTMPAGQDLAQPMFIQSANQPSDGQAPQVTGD
# UniProt Q9GZZ1: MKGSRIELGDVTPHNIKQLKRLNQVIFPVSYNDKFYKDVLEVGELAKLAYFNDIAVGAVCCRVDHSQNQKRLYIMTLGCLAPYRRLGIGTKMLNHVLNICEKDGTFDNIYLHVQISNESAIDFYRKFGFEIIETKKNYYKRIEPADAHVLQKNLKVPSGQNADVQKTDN
# UniProt Q02818: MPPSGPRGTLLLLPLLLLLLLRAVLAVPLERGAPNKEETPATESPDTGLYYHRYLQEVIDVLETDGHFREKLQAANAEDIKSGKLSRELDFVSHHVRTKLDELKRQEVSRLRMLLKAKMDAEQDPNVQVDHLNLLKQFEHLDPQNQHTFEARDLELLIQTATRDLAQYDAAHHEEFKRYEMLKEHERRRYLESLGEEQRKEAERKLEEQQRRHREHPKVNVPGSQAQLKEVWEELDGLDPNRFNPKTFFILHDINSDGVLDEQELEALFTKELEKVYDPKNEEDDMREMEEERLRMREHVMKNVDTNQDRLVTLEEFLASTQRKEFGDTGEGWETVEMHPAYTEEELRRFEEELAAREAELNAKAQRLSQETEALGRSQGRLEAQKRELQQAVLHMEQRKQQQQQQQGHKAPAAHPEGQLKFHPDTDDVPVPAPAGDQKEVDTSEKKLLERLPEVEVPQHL
# UniProt Q9BPZ3: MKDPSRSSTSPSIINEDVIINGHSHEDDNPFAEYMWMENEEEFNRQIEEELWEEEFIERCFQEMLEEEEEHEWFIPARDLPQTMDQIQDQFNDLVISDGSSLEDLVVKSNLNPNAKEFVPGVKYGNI
# UniProt P50583: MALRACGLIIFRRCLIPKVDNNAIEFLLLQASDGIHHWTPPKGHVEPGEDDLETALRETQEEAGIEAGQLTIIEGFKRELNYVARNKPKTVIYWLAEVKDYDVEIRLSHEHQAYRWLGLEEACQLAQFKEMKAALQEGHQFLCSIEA
# UniProt P68402: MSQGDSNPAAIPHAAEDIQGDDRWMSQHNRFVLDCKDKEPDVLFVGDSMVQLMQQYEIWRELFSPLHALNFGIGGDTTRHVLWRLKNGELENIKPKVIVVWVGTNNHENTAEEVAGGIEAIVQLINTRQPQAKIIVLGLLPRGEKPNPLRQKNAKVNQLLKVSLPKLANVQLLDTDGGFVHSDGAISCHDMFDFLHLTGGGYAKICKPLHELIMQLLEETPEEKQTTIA
# UniProt P13674: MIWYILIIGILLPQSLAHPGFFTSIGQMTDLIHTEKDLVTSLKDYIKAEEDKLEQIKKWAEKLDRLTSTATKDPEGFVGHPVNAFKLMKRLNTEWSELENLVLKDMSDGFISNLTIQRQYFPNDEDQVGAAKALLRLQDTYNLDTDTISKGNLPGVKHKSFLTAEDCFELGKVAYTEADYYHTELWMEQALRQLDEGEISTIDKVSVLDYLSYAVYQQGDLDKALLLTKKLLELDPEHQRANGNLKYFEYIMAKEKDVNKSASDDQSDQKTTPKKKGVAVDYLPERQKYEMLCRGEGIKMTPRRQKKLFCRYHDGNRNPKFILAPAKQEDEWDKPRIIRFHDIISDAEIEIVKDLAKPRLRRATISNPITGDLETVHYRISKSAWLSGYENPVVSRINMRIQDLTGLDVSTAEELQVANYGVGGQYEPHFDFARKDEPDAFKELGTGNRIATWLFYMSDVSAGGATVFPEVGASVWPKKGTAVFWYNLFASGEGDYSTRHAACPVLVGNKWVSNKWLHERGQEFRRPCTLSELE
# UniProt P51957: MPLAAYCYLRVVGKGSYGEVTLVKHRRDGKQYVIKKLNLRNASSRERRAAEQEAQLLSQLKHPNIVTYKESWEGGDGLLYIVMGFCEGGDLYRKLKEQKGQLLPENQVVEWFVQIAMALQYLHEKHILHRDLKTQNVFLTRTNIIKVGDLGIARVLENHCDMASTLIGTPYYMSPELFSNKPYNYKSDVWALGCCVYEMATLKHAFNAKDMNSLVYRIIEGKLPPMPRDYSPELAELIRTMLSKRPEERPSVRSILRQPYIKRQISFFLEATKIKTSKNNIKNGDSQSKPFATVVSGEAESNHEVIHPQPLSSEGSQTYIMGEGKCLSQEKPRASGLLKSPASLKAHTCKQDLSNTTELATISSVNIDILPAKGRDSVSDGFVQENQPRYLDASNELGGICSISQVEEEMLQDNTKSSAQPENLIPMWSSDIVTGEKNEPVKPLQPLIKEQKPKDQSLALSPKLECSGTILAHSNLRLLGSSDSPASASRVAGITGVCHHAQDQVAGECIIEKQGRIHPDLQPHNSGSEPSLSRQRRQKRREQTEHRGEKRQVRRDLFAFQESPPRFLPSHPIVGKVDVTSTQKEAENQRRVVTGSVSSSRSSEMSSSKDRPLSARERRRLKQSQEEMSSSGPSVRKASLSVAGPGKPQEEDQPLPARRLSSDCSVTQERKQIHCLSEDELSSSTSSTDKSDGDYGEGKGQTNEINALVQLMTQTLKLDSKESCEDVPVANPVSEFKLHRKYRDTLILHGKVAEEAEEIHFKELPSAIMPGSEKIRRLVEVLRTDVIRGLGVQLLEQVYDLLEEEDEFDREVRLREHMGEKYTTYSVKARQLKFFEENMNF
# UniProt Q9H999: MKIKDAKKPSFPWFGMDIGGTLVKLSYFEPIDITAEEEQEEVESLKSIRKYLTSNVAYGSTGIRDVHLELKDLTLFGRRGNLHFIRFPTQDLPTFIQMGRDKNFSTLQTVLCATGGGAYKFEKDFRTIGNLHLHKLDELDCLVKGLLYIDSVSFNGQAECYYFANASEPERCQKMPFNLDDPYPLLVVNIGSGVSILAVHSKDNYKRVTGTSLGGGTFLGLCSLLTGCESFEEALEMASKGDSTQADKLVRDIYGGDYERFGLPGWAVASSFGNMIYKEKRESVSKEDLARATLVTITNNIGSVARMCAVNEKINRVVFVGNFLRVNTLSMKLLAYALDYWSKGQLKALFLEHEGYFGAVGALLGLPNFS
# UniProt Q96HR8: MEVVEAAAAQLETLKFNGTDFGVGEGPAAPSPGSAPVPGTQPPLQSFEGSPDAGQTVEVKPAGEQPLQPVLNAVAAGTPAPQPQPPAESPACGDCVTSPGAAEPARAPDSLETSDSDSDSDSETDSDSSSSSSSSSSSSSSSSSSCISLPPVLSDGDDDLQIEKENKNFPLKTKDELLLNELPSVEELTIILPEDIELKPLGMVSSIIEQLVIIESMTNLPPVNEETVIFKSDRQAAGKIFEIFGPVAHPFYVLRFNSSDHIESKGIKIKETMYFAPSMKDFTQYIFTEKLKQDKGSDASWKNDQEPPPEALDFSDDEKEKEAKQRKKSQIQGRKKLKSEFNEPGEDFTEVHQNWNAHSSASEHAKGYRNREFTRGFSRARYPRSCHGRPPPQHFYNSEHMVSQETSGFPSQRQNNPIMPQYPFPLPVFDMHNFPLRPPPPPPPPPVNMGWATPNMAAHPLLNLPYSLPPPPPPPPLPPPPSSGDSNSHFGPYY
# UniProt Q8N573: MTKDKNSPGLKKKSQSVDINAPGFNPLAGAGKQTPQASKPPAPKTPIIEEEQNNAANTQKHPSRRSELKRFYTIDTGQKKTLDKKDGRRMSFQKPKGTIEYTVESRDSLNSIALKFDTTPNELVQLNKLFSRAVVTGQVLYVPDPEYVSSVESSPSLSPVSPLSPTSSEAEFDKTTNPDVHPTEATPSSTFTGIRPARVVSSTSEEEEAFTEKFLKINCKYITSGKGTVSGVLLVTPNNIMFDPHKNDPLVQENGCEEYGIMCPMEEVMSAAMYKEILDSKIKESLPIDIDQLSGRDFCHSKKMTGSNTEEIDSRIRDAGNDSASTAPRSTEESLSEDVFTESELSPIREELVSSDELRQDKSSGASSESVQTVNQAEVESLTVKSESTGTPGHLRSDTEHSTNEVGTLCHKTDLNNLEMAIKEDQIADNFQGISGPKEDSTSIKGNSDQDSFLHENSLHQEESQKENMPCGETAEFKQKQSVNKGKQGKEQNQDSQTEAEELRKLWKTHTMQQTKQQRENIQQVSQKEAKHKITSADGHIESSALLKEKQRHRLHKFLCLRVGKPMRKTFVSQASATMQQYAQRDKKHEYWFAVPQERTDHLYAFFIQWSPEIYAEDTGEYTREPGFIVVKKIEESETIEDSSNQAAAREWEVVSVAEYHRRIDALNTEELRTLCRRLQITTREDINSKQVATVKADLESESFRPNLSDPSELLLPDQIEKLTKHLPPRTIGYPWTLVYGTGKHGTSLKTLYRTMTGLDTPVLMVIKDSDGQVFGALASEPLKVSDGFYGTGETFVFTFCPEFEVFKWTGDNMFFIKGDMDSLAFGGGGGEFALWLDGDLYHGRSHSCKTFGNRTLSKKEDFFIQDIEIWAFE
# UniProt Q9BSD7: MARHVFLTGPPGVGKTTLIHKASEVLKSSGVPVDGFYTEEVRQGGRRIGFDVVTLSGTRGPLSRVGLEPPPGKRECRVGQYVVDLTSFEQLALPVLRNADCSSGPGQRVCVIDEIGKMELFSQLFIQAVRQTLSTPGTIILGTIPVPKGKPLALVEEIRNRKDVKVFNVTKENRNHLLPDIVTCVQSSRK
# UniProt Q9NV35: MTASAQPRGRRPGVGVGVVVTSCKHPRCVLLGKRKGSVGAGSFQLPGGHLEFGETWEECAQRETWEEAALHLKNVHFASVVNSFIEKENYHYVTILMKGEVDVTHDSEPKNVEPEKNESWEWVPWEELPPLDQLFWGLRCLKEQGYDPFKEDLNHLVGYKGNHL
# UniProt Q9NR45: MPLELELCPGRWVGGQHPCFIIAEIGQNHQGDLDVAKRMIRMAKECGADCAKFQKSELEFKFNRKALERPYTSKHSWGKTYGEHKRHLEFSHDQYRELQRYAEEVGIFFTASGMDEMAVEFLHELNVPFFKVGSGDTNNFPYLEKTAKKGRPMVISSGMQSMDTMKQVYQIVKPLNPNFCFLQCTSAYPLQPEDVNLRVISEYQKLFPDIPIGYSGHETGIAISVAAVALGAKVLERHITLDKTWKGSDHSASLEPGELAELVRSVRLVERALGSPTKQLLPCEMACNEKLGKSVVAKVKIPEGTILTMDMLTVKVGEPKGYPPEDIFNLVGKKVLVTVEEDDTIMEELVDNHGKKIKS
# This is one part of the list.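 The calls were made as follows: active = dose-dependent thermal stabilisation significant by F-test of dose-response against flat model at 10% FDR; inactive = not significant.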
# Compound: Nc1nc2c(ncn2[C@@H]2O[C@H](COP(=O)(O)OP(=O)(O)OP(=O)(O)O)[C@@H](O)[C@H]2O)c(=O)[nH]1
# Assay: dose-dependent thermal stabilisation call (2D-TPP, DLPTP, 10% FDR) (binary (1 = stabilised)); higher = stabilised by the compound
# Conditions: system: Jurkat gel-filtered lysate; concentration range 1-500 µM
row,Target,dose-dependent thermal stabilisation call
1,NDRG2 (UniProt Q9UN36),inactive: 0
2,NELFB (UniProt Q8WX92),inactive: 0
3,NFYC (UniProt Q13952),inactive: 0
4,NAA50 (UniProt Q9GZZ1),inactive: 0
5,NUCB1 (UniProt Q02818),inactive: 0
6,NCAPD2 (UniProt Q15021),inactive: 0
7,OGFOD2 (UniProt Q6N063),active: 1
8,PAIP2 (UniProt Q9BPZ3),inactive: 0
9,OXSR1 (UniProt O95747),active: 1
10,NUDT2 (UniProt P50583),active: 1
11,PAFAH1B2 (UniProt P68402),inactive: 0
12,NACC1 (UniProt Q96RE7),inactive: 0
13,P4HA1 (UniProt P13674),inactive: 0
14,NEK4 (UniProt P51957),inactive: 0
15,NFRKB (UniProt Q6P4R8),inactive: 0
16,NCKAP1 (UniProt Q9Y2A7),inactive: 0
17,PALLD (UniProt Q8WX93),active: 1
18,NADK (UniProt O95544),inactive: 0

row,Target,dose-dependent thermal stabilisation call
1,NAPRT (UniProt Q6XQN6),active: 1
2,PABPC1 (UniProt P11940),inactive: 0
3,NCSTN (UniProt Q92542),inactive: 0
4,NUP62 (UniProt P37198),inactive: 0
5,PANK3 (UniProt Q9H999),active: 1
6,NAF1 (UniProt Q96HR8),inactive: 0
7,NT5C3A (UniProt Q9H0P0),inactive: 0
8,NKIRAS2 (UniProt Q9NYR9),active: 1
9,PARD3 (UniProt Q8TEW0),inactive: 0
10,OXR1 (UniProt Q8N573),inactive: 0
11,NUCB2 (UniProt P80303),inactive: 0
12,NTPCR (UniProt Q9BSD7),active: 1
13,OTUD7B (UniProt Q6GQQ9),inactive: 0
14,NOL4L (UniProt Q96MY1),inactive: 0
15,NRAS (UniProt P01111),active: 1
16,NCKAP1L (UniProt P55160),inactive: 0
17,NUDT15 (UniProt Q9NV35),inactive: 0
18,NANS (UniProt Q9NR45),inactive: 0

# Exported with bars between the fields: entries from further up.
row | Target | dose-dependent thermal stabilisation call
9 | PARD3 (UniProt Q8TEW0) | inactive: 0
11 | NUCB2 (UniProt P80303) | inactive: 0
